Reference: article PMC12845422, “Characterization of a Novel Family of Contilisant + Belinostat Multitarget Small Molecules in Glioblastoma” (Pharmaceuticals, 2025)

Test system: GNS166 cells
Assay: Proteomic profiling
Assay type: cell-based
Details: 5 µM, p-value < 0.05

O=C(/C=C/c1cccc(S(=O)(=O)n2ccc3cc(OCCCN4CCCCC4)ccc32)c1)NO [MTP150]
downregulated proteins (proteomics): 629
upregulated proteins (proteomics): 572
